Results as given in article PMC7387855.
No constants are given. Whether binding was seen depends on the method and setting. Binding seen in cells or lysates may run through a third protein. Some binding calls cover weakened binding; strength is not graded here. Sequences can lack the tags named with a protein.

Sequences of proteins named here, by UniProt entry; tags and fusion partners are left off.
UniProt Q9LN63: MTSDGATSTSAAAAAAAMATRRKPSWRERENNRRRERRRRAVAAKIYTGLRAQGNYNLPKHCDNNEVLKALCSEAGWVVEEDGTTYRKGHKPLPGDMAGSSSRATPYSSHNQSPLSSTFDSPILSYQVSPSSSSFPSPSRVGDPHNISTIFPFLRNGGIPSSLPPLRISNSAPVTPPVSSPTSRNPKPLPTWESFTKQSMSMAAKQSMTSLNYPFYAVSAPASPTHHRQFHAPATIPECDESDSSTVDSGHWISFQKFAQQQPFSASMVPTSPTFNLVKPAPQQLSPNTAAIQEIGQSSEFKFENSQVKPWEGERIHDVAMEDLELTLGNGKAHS
UniProt P0A850: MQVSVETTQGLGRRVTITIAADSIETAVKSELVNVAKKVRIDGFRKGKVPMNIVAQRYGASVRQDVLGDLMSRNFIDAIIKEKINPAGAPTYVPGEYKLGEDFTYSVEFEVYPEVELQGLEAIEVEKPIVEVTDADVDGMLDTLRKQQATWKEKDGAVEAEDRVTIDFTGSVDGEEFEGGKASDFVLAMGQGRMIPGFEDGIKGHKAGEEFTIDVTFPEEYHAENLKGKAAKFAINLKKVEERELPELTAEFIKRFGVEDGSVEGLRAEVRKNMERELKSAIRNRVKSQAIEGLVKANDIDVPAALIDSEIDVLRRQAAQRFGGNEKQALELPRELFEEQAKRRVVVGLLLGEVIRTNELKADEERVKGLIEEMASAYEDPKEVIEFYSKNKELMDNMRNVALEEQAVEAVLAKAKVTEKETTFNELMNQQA

Biological target: GST-BES1 (UniProt Q9LN63)
Experiment: pull-down; in vitro; GST-BES1 as bait; detected with anti-His antibody

His-TF (from UniProt P0A850 1-432)
binding: no binding

B1: His-AGB1 (protein, UniProt P49177 1-377)
chain: MSVSELKERHAVATETVNNLRDQLRQRRLQLLDTDVARYSAAQGRTRVSFGATDLVCCRTLQGHTGKVYSLDWTPERNRIVSASQDGRLIVWNALTSQKTHAIKLPCAWVMTCAFSPNGQSVACGGLDSVCSIFSLSSTADKDGTVPVSRMLTGHRGYVSCCQYVPNEDAHLITSSGDQTCILWDVTTGLKTSVFGGEFQSGHTADVLSVSISGSNPNWFISGSCDSTARLWDTRAASRAVRTFHGHEGDVNTVKFFPDGYRFGTGSDDGTCRLYDIRTGHQLQVYQPHGDGENGPVTSIAFSVSGRLLFAGYASNNTCYVWDTLLGEVVLDLGLQQDSHRNRISCLGLSADGSALCTGSWDSNLKIWAFGGHRRVI
binding: binds
